PubChem BioAssay AID1224827 | NIAID, 2016
This is one part, drawn at random, of about 3,800 reagents. About 2,200 of them (57%) count as active. 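Active means a strong reporter change in either direction; calls are per siRNA, not per gene; qiagen siRNAs gave weaker effects.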 A number with no mark means an inactive call. Not all columns of the deposit are shown.

Assay: 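Retest primary hits on a TNF reporter with six siRNAs per gene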 (follow-up of hits)
Cell system: RAW264.7 G9 mouse macrophage reporter clone
Reagent: single siRNA against mouse genes, 100 nM siRNA
Timing: siRNA for 2 days, then LPS about 16 h
Conditions: bacterial lipopolysaccharide (LPS), 10 ng/ml, cells fixed after overnight (about 16 h) stimulation
Detection: 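TNF promoter reporter red fluorescence in nuclei, background subtracted, normalised per plate and to non-targeting control siRNA, as z-scores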
Scale: TNF reporter z-score, mean: higher = stronger Tnf promoter reporter signal
Active means: 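Active siRNA: replicate-mean z-score of 2 or more, or -2 or less; no calls for control wells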

For Fech [SID315484140], what does the deposit list?
TNF reporter z-score, mean: -3.64 (active)

With Fech [SID315484141], what was measured?
TNF reporter z-score, mean: -4.07 (active)

What did the screen give for Fech [SID315484142]?
TNF reporter z-score, mean: -5.1 (active)

How did the screen score Fech [SID315484143]?
TNF reporter z-score, mean: 1.08

What is on record for Fech [SID315484144]?
TNF reporter z-score, mean: -0.0587

What is on record for Fech [SID315484145]?
TNF reporter z-score, mean: -0.361

What is on record for Arrdc4 [SID315486357]?
TNF reporter z-score, mean: 3.52 (active)

What did the screen give for Arrdc4 [SID315486358]?
TNF reporter z-score, mean: -2.92 (active)

What did the screen give for Arrdc4 [SID315486359]?
TNF reporter z-score, mean: -4.01 (active)

With Arrdc4 [SID315486360], how do the results read?
TNF reporter z-score, mean: 1.18

For Arrdc4 [SID315486361], how do the results read?
TNF reporter z-score, mean: -0.77

With Arrdc4 [SID315486362], what was measured?
TNF reporter z-score, mean: -1.02
